# Assay results taken from patent US20220050096A1, “ANALYTE-SENSITIVE PROBES AND CONTACT LENS FOR DIAGNOSIS OF OCULAR PATHOLOGIES” (University Of Maryland, Baltimore, priority 2020, published 2022).
# Test: Chloride quenching (Stern-Volmer) of SPQ-C18 in contact lenses
# Type: physicochemical
# Experimental: Quenching by Chloride. […] The intensities (I) and lifetimes (6) are analyzed using the Stern-Volmer equation, where F0 and τ0 are the intensities and lifetimes in the absence of chloride, and K is the quenching constant and the inverse of the [Cl^-] needed for 50% quenching. For collisional quenching, the value of F0/F and τ0/τ are typically the same. In solution, in the absence of lenses, the value of K=kq τ0 can be used to calculate the biomolecular quenching constant kq and the quenching efficiency. In the lenses, the [Cl-] may not be the same as in the bulk solution, but kq in the lenses is estimated by assuming the same concentration of chloride around the SPQ moiety in the lenses and in bulk solutions. Chloride-sensitive lenses were prepared using SPQ-C18. The quinolinium moiety in SPQ-C18 can be used for chloride sensing in tears. Its unquenched lifetime near 18.5 ns (see Table 14 and Table 15, below) which results in significant changes up to chloride concentrations of 220 mM, which is well above the physiological range. BiofinityTM and […] lenses labeled with SPQ-C18 were both found to display significant quenching at physiological concentrations of chloride near 120 mM. The emission intensities of SPQ-C18 were quenched by about 50% at this chloride concentration (FIG. 31 and FIG. 32). The emission spectra are not changed by quenching so intensity-based sensing may be different in a realworld application. […] Chloride quenching was analyzed using the Stern-Volmer equation for intensities and lifetimes (equations 7 and 8). In this analysis, we used the average lifetimes (equation 2) that is more appropriate for quenching. […] In contrast quenching of SP-PL, both intensity and lifetime, continue to decrease as the chloride concentration is increased. At the molecular level, the most interesting term is the biomolecular quenching constant kq. This value can be understood by comparison with quenching of a fluorophore in solution without any steric barriers. […]
smiles,measurement,setting,value
"CCCCCCCCCCCCCCCCCC[n+]1cccc2cc(OC)ccc21 [SPQ-C18, N-Octadecyl-6-methoxyquinolinium bromide]",reversibility of chloride quenching,Biofinity and MyDay,completely reversible
same,limit of detection of chloride ion,labeled lens,10 mM
same,limit of quantification of chloride ion,labeled lens,25 mM
